The list shows a part of the results.
Experiments:
Assay in all cases: log2 fold change, soluble protein after heating vs DMSO (PISA); higher = thermal stabilisation; K562 lysate, 10 uM; active = over 0.2 and 3.5 SD of the protein, either way, in both replicates (recomputed)
[1] = compound: O=C1NC(=O)C(c2cnc3ccccn23)=C1c1cn2c3c(cc(F)cc13)CN(C(=O)N1CCCCC1)CC2
Outline: (§1)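 The values are log-two fold changes in thermal stability compared with solvent controls and come from duplicates. They were obtained by TMTpro 16plex LC-MS/MS, with channel sums equalised, on the supernatant after 21,000xg for 90 min. That supernatant came from crude K562 extract at 1 mg/mL protein treated with 10 μM compound for 30 min, heated for 3 min across 48°C-58°C, pooled and brought to 0.5% NP-40 at 4°C.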

Amino acid sequences for entries named in this document (tags omitted). A change or cut given only in a name is not applied to a line headed by its entry.
UniProt Q96AN5: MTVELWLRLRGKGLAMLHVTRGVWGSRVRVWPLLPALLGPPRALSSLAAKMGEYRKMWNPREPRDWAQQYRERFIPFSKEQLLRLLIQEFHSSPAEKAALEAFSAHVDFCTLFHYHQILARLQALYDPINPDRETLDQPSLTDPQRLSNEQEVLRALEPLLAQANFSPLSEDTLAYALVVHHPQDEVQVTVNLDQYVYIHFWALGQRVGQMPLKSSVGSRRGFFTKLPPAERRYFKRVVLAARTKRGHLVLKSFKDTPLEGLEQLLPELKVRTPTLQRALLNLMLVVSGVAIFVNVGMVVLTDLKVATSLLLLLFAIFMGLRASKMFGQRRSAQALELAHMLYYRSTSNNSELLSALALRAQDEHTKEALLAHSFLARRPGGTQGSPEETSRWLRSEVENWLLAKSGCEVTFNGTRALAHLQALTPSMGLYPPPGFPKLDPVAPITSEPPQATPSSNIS
UniProt O94876, whole entry, looked up: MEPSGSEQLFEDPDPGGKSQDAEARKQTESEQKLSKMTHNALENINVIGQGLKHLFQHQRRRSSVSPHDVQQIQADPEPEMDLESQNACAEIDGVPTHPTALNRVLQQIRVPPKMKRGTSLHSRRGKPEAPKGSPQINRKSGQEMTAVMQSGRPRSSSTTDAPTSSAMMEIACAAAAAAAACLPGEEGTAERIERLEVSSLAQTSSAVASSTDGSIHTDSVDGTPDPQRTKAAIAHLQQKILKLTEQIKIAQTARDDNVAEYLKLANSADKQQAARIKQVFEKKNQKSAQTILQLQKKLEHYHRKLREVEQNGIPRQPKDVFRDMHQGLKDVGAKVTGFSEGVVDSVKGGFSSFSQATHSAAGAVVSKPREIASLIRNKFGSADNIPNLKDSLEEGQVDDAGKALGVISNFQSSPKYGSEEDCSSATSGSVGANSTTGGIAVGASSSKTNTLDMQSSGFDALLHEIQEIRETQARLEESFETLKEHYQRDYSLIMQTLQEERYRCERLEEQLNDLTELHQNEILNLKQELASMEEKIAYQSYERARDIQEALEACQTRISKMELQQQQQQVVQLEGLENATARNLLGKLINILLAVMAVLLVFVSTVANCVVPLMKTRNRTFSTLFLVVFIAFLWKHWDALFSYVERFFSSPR
UniProt Q9BVX2: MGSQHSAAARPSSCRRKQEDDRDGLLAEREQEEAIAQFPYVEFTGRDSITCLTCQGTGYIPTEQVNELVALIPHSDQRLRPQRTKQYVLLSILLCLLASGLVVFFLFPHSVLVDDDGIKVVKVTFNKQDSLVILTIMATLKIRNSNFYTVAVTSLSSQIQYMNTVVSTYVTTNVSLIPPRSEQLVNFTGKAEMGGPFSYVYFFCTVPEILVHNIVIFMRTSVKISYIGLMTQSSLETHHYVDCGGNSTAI
UniProt Q9BVK8: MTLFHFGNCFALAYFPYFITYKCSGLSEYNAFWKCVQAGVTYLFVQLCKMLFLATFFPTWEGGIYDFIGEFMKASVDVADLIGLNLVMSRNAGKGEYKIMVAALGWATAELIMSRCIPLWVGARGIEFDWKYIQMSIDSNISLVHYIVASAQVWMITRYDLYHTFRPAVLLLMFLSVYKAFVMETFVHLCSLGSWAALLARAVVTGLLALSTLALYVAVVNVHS
UniProt Q9Y3Q3: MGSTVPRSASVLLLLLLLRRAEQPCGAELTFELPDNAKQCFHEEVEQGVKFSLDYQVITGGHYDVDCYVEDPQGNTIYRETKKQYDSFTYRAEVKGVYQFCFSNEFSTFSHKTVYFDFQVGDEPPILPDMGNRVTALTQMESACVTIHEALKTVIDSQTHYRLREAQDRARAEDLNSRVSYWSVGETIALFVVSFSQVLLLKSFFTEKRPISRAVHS
UniProt Q96IK0: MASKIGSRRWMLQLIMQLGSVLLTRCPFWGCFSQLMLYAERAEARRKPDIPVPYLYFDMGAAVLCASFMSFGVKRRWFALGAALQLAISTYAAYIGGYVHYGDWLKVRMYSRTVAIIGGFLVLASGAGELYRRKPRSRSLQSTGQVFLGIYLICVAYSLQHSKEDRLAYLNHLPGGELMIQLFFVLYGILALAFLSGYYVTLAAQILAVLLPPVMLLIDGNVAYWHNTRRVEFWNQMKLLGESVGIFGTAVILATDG
UniProt Q8N131: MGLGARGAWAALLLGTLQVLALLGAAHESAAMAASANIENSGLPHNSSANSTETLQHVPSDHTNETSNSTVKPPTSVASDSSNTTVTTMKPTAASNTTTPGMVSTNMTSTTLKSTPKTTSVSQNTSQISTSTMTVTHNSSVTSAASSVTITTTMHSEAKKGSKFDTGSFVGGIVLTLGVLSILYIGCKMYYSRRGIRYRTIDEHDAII
UniProt Q8WTV1: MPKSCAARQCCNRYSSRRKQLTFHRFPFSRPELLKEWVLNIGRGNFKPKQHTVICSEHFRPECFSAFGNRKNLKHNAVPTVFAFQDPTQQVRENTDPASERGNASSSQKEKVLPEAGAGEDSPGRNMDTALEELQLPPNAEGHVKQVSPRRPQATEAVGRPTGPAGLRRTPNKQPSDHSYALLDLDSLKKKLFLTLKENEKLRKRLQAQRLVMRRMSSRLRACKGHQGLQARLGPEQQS
UniProt P07996: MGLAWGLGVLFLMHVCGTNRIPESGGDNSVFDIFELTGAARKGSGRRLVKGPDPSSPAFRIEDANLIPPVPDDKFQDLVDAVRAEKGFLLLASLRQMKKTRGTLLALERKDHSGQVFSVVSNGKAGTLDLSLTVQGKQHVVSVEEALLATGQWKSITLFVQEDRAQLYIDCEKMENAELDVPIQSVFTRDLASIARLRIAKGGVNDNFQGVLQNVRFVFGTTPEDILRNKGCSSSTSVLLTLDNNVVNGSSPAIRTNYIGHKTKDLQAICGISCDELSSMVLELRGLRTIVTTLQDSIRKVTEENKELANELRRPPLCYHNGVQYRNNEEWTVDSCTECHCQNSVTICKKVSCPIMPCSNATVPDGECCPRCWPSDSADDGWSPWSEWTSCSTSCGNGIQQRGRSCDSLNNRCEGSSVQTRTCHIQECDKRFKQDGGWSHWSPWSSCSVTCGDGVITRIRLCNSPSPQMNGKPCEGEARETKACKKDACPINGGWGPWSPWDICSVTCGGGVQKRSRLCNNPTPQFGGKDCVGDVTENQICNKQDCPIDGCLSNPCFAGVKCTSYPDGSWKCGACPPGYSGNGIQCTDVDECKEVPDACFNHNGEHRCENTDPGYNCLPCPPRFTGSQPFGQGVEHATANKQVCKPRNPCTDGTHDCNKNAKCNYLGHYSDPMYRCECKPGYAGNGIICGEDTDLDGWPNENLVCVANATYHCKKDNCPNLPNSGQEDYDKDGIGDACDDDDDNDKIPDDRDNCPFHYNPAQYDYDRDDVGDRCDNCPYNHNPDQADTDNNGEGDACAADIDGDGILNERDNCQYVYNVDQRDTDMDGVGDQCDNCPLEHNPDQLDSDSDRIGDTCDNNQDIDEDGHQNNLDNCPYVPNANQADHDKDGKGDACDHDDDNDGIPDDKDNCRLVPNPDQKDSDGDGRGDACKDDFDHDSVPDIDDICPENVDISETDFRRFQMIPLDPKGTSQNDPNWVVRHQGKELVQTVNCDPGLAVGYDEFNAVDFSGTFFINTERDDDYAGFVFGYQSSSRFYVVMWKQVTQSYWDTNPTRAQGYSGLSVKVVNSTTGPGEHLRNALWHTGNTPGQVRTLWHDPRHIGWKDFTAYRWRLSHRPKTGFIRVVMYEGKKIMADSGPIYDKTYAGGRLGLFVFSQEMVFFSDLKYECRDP
UniProt Q6P9G4: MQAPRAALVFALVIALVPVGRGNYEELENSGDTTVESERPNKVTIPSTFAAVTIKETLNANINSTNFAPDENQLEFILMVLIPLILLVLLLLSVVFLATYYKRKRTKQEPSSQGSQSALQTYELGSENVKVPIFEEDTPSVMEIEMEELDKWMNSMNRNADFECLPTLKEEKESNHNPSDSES
UniProt Q24JP5: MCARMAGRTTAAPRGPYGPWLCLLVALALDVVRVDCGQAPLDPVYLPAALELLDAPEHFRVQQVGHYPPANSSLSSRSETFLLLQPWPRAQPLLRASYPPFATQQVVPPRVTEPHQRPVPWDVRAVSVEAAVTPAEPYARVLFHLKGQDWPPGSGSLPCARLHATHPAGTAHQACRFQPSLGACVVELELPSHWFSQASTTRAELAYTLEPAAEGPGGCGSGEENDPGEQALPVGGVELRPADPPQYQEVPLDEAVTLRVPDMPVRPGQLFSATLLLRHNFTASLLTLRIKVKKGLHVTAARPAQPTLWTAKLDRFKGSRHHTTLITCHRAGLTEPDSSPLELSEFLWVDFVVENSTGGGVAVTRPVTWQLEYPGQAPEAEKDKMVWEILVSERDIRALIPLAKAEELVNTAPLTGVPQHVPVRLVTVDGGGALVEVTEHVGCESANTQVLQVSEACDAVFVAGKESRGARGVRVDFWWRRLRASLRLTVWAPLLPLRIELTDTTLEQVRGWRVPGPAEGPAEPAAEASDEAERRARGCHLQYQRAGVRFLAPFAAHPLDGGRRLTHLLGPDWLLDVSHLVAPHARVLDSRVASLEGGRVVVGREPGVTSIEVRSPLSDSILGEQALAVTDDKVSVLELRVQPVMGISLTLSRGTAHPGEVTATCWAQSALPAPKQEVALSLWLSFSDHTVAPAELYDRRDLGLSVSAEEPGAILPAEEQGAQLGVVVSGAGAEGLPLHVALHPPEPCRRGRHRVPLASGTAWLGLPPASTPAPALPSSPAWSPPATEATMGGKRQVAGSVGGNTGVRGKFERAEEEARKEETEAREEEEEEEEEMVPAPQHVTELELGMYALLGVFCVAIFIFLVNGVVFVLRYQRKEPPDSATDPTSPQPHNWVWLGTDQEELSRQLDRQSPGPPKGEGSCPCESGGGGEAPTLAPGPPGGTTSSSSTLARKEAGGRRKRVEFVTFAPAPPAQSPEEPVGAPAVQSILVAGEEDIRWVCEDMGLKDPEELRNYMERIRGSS
UniProt P37173, whole entry, looked up: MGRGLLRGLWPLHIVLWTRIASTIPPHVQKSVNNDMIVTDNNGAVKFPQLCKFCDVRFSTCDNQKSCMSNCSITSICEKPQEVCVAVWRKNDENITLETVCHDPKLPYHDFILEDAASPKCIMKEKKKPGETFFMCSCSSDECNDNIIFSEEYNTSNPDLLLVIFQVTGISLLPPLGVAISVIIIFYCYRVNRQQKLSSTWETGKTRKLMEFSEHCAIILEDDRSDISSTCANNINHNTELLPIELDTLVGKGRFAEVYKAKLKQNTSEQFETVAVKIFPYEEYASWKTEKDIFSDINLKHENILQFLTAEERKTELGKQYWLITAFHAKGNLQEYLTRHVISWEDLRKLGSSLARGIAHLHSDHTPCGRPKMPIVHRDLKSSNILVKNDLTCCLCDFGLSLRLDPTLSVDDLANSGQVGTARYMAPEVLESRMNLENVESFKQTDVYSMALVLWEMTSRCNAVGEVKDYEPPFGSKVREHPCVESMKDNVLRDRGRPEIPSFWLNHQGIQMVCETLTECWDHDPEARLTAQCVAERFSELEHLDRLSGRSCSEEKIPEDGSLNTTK
UniProt P36897: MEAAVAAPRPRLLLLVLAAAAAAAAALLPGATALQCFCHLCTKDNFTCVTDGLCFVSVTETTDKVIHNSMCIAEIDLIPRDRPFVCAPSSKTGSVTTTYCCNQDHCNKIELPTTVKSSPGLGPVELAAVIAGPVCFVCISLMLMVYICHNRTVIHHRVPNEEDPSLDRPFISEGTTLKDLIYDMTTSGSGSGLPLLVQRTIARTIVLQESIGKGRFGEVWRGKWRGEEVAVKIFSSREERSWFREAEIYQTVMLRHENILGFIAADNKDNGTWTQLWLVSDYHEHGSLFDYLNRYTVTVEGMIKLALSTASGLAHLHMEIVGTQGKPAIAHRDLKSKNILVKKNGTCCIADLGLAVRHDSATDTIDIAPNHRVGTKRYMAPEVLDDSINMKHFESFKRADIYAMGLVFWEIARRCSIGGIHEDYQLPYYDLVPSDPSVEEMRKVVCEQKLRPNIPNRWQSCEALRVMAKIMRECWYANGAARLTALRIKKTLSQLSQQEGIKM

[2] = compound: NCC(=O)Nc1ccc(-n2nc(C(F)(F)F)cc2-c2ccc3c(ccc4ccccc43)c2)cc1
Outline: as §1

entospletinib = compound: c1cn2cc(-c3ccc4cn[nH]c4c3)nc(Nc3ccc(N4CCOCC4)cc3)c2n1 [entospletinib]
Outline: as §1

vorinostat = compound: O=C(CCCCCCC(=O)Nc1ccccc1)NO [vorinostat]
Outline: as §1

silmitasertib = compound: O=C(O)c1ccc2c(c1)nc(Nc1cccc(Cl)c1)c1ccncc12 [silmitasertib]
Outline: as §1

Measured: log2 fold change

THOC2 (UniProt H0Y7U4)
inactive: [1] 0.005

TMEM143 (UniProt Q96AN5)
inactive: [2] -0.045 | [1] 0.092 | entospletinib 0.057

TMCC1 (UniProt O94876)
inactive: [2] 0.052 | entospletinib -0.42

TMEM106C (UniProt Q9BVX2)
inactive: vorinostat -0.134 | silmitasertib -0.104 | entospletinib -0.27

TMEM147 (UniProt Q9BVK8)
inactive: vorinostat 0.286 | silmitasertib 0.012 | [1] -0.001 | entospletinib 0.084

TMED3 (UniProt Q9Y3Q3)
inactive: vorinostat -0.036 | silmitasertib 0.073 | [1] -0.034

TLE3 isoform 5 (UniProt Q04726)
inactive: vorinostat 0.144 | silmitasertib 0.019 | [1] -0.058 | entospletinib -0.002

TMEM101 (UniProt Q96IK0)
inactive: vorinostat 0.116 | silmitasertib 0.057 | [1] 0.06 | entospletinib -0.064

TMEM123 (UniProt Q8N131)
inactive: [2] 0.005 | vorinostat -0.025 | silmitasertib 0.059 | entospletinib 0.001

THAP3 (UniProt Q8WTV1)
inactive: vorinostat -0.243 | silmitasertib -0.064 | [1] 0.14

THBS1 (UniProt P07996)
inactive: [2] 0.058 | [1] 0.082

TMEM154 (UniProt Q6P9G4)
inactive: [1] 0.008 | entospletinib -0.056

TMEM132A isoform 2 (UniProt Q24JP5)
inactive: vorinostat -0.156 | silmitasertib 0.351 | [1] 0.227 | entospletinib -0.089

TGFBR2 isoform 2 (UniProt P37173)
inactive: vorinostat 0.162 | silmitasertib -0.104 | entospletinib 0.159

TGFBR1 isoform 2 (UniProt P36897)
inactive: vorinostat 0 | silmitasertib 0.076 | entospletinib -0.004
